Patent US8658403B2, “Method for producing polyhydroxyalkanoic acid” (priority 2009, dated 2014)

Test system: BM07-ΔphaZ
Test: Aromatic PHA production, one-step cultivation on 50 mM fructose and 10 mM 5-PV or 6PC
Format: cell-based, Pseudomonas fluorescens
Details: 1 mM salicylic acid, 30° C., culture time 72 h
Procedure: […] Salicylic acid was dissolved by adding sodium hydroxide and the pH of the solution was adjusted to 7.2 before adding to medium. Cell growth was determined by measuring dry cell weight (DCW). The remaining fructose was measured using DNS method and the remaining 11-POU or other carboxylic acids were determined by gas chromatography. The cells were isolated by centrifuging (10,000×g, 10 min), the cell suspension was washed with methanol and dried under vacuum at room temperature for 48 hours. The remaining NH4^+ was measured using Nessler's reagent. In the time-course profiling experiments, a set of culture flasks equal to the planned sampling times (every 4 or 6 h) was prepared and cultivated under the same culture condition. One of the flasks was withdrawn every scheduled time and the medium (50 ml) was centrifuged and analyzed.
The monomer composition of the PHA in cells was determined by analyzing the methyl esters, recovered from a sulfuric acid/methanol treatment of the cells, using a Hewlett-Packard HP5890 Series II gas chromatograph equipped with a HP-1 capillary column and a flame ionization detector. The gas chromatography (GC) run conditions were as follows: initial temperature of 80° C. for 2 min; heating rate of 8° C./min; final temperature of 250° C. for 6.75 min; carrier (He) flow rate of 3 ml/min; injector temperature of 230° C.; and detector temperature of 280° C. The standardization of each GC peak was made against the PHA of known structure characterized by quantitative NMR analyses

`O=C(O)c1ccccc1O` [Salicylic acid, salicylic acid] showed a Conversion yield (50 mM fructose + 10 mM 5PV) of 0.591 ± 0.002, a Conversion yield (50 mM fructose + 10 mM 5PV, listed as salicylic acid) of 0.59 and a Conversion yield (50 mM fructose + 10 mM 6PC) of 0.333 ± 0.002.
